Source: ChEMBL document CHEMBL3988442, “University of Dundee, Small-Polar-MMV Screening Library” (2021).

Amino acid sequences for entries named in this document (tags omitted).
UniProt P9WFT3, whole entry: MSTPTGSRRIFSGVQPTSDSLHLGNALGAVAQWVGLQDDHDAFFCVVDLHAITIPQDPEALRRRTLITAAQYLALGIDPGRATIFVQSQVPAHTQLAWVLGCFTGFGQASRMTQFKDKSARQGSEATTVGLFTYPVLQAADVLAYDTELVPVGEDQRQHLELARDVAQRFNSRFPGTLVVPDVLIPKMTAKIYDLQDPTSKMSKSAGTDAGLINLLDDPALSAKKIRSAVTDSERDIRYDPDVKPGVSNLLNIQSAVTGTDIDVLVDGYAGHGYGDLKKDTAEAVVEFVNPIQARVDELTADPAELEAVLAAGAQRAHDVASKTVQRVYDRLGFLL

Results are given as percent effect.
The controls that fix the scale are not given in the record; negative values are as filed.
The compounds are a random part of those screened.

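Enzyme assay of tryptophanyl-tRNA synthetase; the read-out is not stated. Target: Tryptophan-tRNA ligase, Mycobacterium tuberculosis (UniProt P9WFT3). Tested at 10 µM. Direction is not recorded; retested compounds ran higher, which suggests that high means inhibition. About 65,000 compounds were tested under these conditions; 0.098% (about 64) showed 50% or more at least once.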

| # | structure | Percent Effect |
|---|---|---|
| 1 | `O=C(Nc1cc(C(F)(F)F)c[nH]c1=O)C1CCNCC1` | 2.894% |
| 2 | `CC1CN(C)CCN1C(=O)c1ccc(-n2cnnc2)cc1` (stereo not given) | 3.846% |
| 3 | `O=S1(=O)NCC2(CCN(c3ncccn3)CC2)COc2ccccc21` | 14.56% |
| 4 | `O=C(Cc1csc(-c2ccco2)n1)N1CCN(c2nccs2)CC1` | -0.5112% |
| 5 | `COCCN1C[C@@H]2CN(Cc3ccoc3)CCC[C@]2(C(=O)O)C1` | -5.383% |
| 6 | `CS(=O)(=O)c1cn[nH]c1C1CCCN(C(=O)Cn2cccn2)C1` (stereo not given) | -2.196% |
| 7 | `Cc1ccnc(NCc2cn3c(C)csc3n2)n1` | -4.549% |
| 8 | `CSc1ccccc1CN1C[C@H]2C(=O)N(CC3CC3)C[C@@]2(C(=O)O)C1` | 1.816% |
| 9 | `CS(=O)(=O)N1CCC(Oc2ccc(C#N)cc2)CC1` | 3.011% |
| 10 | `CCCN1CCN(Cc2cn(CCC(N)=O)c3ccccc23)CC1` | -10.21% |
| 11 | `CN(C)S(=O)(=O)N1CCN(c2nccc(C(F)(F)F)n2)CC1` | -2.352% |
| 12 | `CCOC(=O)N1CCN(C(=O)c2cc(OCC)c3ccoc3c2)CC1` | -3.31% |
| 13 | `O=C(c1ccc(-n2ccnc2)nn1)N1CCCC1CCc1ccccc1` (stereo not given) | 1.687% |
| 14 | `O=S(=O)(NCC1COc2ccccc2C1)N1CCCCC1` (stereo not given) | 2.905% |
| 15 | `CC(=O)c1cccc(NC(=O)Cn2cnc(-c3cccs3)cc2=O)c1` | -4.483% |
| 16 | `CCn1ccnc1CN1CCN(CCC(=O)NC2CCCCC2)CC1` | -0.624% |
| 17 | `Cc1ccc(-c2nc(CN3CCCC3Cn3cncn3)co2)cc1` (stereo not given) | -4.802% |
| 18 | `O=C(NCC(=O)N1CCCC(n2cncn2)C1)OCc1ccccc1` (stereo not given) | -4.379% |
| 19 | `Cc1cccnc1N1CCC(c2nccn2Cc2cscn2)CC1` | -2.506% |
| 20 | `Cc1cc(C)c2nc(CNC3CCCNC3=O)cc(O)c2c1` (stereo not given) | 5.777% |
| 21 | `O=C(NCc1ccc(CO)cc1)C1CCOc2ccccc2C1` (stereo not given) | -0.618% |
| 22 | `O=C(c1cccc(NCCOc2ccc(F)cc2)c1)N1CCOCC1` | -3.422% |
| 23 | `O[C@@H]1CCN(CC2CCOC2)[C@H]1Cc1cccnc1` (stereo not given in full) | 2.616% |
| 24 | `CCc1cc(N(C)CCC(O)c2ccccc2)n2nccc2n1` (stereo not given) | -1.288% |
| 25 | `Cc1nc(CN2CCN(C3CCOC3)Cc3cccnc32)cs1` (stereo not given) | 6.773% |
| 26 | `CC(c1nncn1C)n1cc(-c2cc(CN3CCCC3)cs2)nn1` (stereo not given) | 13% |
| 27 | `CCC(=O)NCC(=O)NC(Cc1ccccc1)c1sccc1C` (stereo not given) | 2.77% |
| 28 | `CC(=O)c1ccn(CC(=O)Nc2nn(CC3CC3)c3ccccc23)n1` | -1.223% |
| 29 | `NC(=O)CCN(C(=O)c1cccc2c1OCO2)c1ccccc1` | -7.637% |
| 30 | `CN(CC1Cc2ccccc2CN1C)C(=O)CSc1ccccn1` (stereo not given) | 2.147% |
| 31 | `CN1CCC(N(CCc2ccccc2)Cc2noc(C3CC3)n2)CC1` | -0.5789% |
| 32 | `CN(C)C(=O)[C@@H]1CC[C@@H]2[C@@H](CCN2Cc2nccs2)O1` | -4.975% |
| 33 | `CCN1CCC(CC(=O)NCCc2nc(N)cc(O)n2)CC1` | 4.633% |
| 34 | `CN1CC[C@H]2[C@H](C[C@@H](Cn3cncn3)N2c2nccs2)C1` | -0.6783% |
| 35 | `Cc1nn(C)c(N2CCOCC2)c1CNCc1ccc(Cl)s1` | -0.3909% |
| 36 | `CN(C)C(=O)CN1CC[C@@H]2O[C@@H](COCc3cccnc3)CC[C@@H]21` | -2.957% |
| 37 | `Cc1nc(C2CCCN2CCCS(=O)(=O)N(C)C)no1` (stereo not given) | -0.3145% |
| 38 | `O=C(c1ccco1)N(CC(F)(F)F)C1CCCOC1` (stereo not given) | -7.033% |
| 39 | `CCN(Cc1noc(CC(C)C)n1)Cc1ccccc1C` | -1.024% |
| 40 | `O=C(c1cscn1)N1CCC[C@]2(C[C@H](OCC3CC3)CO2)C1` | -1.057% |
| 41 | `COCc1cccc(NCc2cccnc2)c1` | -4.063% |
| 42 | `NCC(c1ccccc1)N1CCc2sccc2C1` (stereo not given) | 1.377% |
| 43 | `Cn1cccc1-c1cc(C(=O)N2CCCC2C(F)(F)F)[nH]n1` (stereo not given) | 1.944% |
| 44 | `CO[C@H]1CCN(c2nnc(C)s2)C[C@@H]1Cc1cccc(C)c1` | 4.368% |
| 45 | `O=C(c1cnccn1)N1C[C@@H]2CC[C@H](C1)N(S(=O)(=O)c1cccnc1)C2` | 1.882% |
| 46 | `Cc1cccc(O[C@H]2COCCN(Cc3sc(C)nc3C)C2)n1` | 2.138% |
| 47 | `Cc1ccc(N2C[C@H]3OCC[C@H]3[C@H](C(=O)NC3CCC3)C2)nn1` | -2.881% |
| 48 | `Cc1cc(CN(C)C(=O)CN2CC3(CCNCC3)OC2=O)n(C)n1` | 0.1032% |
| 49 | `CCn1cc(-c2cc(C(=O)N3CCOCC3)c3cc(Cl)ccc3n2)cn1` | -2.067% |
| 50 | `c1cc(-c2cnc(NC3CC3)nc2[C@H]2CCCO2)ccn1` | -2.42% |
| 51 | `CC(C)c1n[nH]c(C(=O)Nc2ccncc2)c1Br` | -25.89% |
| 52 | `CC(C)NC(=O)N1C[C@H](OCc2cccnc2)[C@H]2COC[C@H]21` | -7.169% |
| 53 | `CCCC(C(=O)NC1CCN(S(C)(=O)=O)CC1)n1cccc1` (stereo not given) | -0.3276% |
| 54 | `Cc1cn2c(n1)CCC(NC(=O)c1cnc(C)nc1C(C)C)C2` (stereo not given) | 2.267% |
| 55 | `CCn1cncc1CNc1ccc(-c2nc(CC(C)C)no2)cn1` | 1.325% |
| 56 | `Cc1nc(C2CCN(C(=O)COC(C)C)CC2)cc(N2CCOCC2)n1` | -3.402% |
| 57 | `CCCc1ccc(C(=O)N2CCn3c(nnc3C(C)C)C2)cc1` | 0.5696% |
| 58 | `CN(Cc1ccccc1)CC1(O)CCCN(CC(C)(C)C)C1=O` (stereo not given) | 1.706% |
| 59 | `c1ccc(-c2nc(CN3CCCC3Cn3cncn3)no2)cc1` (stereo not given) | 0.565% |
| 60 | `OCC1(CC2CC2)CCCN(Cc2cnc(C3CCCCC3)nc2)C1` (stereo not given) | -1.06% |
| 61 | `O=c1ccc2c(n1Cc1ccncc1)CCN(Cc1ccoc1)CC2` | 3.121% |
| 62 | `CC(CN1CCCC1=O)NC(=O)Nc1ccccc1Cn1cccn1` (stereo not given) | -1.43% |
| 63 | `Cc1n[nH]c(C)c1CCCN(C)Cc1c[nH]nc1-c1ccc(F)cc1` | 0.854% |
| 64 | `CCN1C(=O)CC[C@@H]2[C@H]1CCN2S(=O)(=O)c1cccs1` | -4.446% |
| 65 | `Cc1nc(NCc2nnc(C)n2C)c2c(CC(C)C)csc2n1` | 4.391% |
| 66 | `CCNC(=O)C1CCCN1S(=O)(=O)c1sc(=O)[nH]c1C` (stereo not given) | 1.125% |
| 67 | `CCS(=O)(=O)N1CCC(c2nnc(CN3CCCCC3)n2C)CC1` | -2.018% |
| 68 | `COCC1CN(Cc2ccc(OC)cc2)Cc2nnn(CC3CC3)c21` (stereo not given) | -0.7229% |
| 69 | `CC(C)NC(=O)N1CCN2C(=O)OC[C@H]2C1` | 1.144% |
| 70 | `CCc1c(C(=O)N2CC[C@H](N3CCOCC3)[C@H](CCCO)C2)csc1C` | -3.909% |
| 71 | `O=C(NCc1ccco1)[C@H]1C[C@@H]2CCN(c3cccc(F)c3)C[C@H]2O1` | -0.7979% |
| 72 | `COc1ccc(-c2cccc(-c3ccn(CCN(C)C)n3)c2)nn1` | -1.737% |
| 73 | `CC(C)(C)Cc1noc2ncc(C(=O)N3CCC3)cc12` | 0.551% |
| 74 | `CN(C)C1CN(C(=O)Nc2cccc(OC(F)F)c2)C1` | 0.000008% |
| 75 | `CN(CC(=O)N1CCN(CC(C)(C)O)CC1)c1ccc(Cl)cn1` | 1.317% |
| 76 | `O=C(Nc1ccc(F)cc1)C1CNCCN1C(=O)CC1CCCCC1` (stereo not given) | -0.2075% |
| 77 | `CC(C)(C)NC(=O)CN1CCCN(c2ccc(C#N)cn2)CC1` | -3.186% |
| 78 | `CSc1ccc(OCCN2CCNC(=O)C2C)cc1` (stereo not given) | 2.601% |
| 79 | `N#CC1(NC(=O)c2nccc3ccccc23)CCC1` | -2.816% |
| 80 | `NC(=O)c1cnn2c1NCC(CNCC1(c3ccccc3)CCC1)C2` (stereo not given) | 0.144% |
| 81 | `Cn1ccnc1CN1CCN2C[C@H](Oc3ccccc3)C[C@H]2C1` | 2.441% |
| 82 | `COc1ccccc1CCNC(=O)CN1CCCC1c1noc(C)n1` (stereo not given) | 1.258% |
| 83 | `CC(C)C(=O)NS(=O)(=O)c1ccc2c(c1)N(C)CCC2` | 0.3276% |
| 84 | `CN1CCC(N2CCCC(C(=O)N3Cc4ccccc4C3)C2)CC1` (stereo not given) | 6.461% |
| 85 | `Cc1ccc(C(=O)NC2CCN(Cc3nc(C(C)C)no3)CC2)s1` | -1.872% |
| 86 | `Cc1c(C(=O)N[C@@H]2CC[C@@H](N3CCCC3)[C@@H]2O)[nH]c2ccc(F)cc12` | 5.231% |
| 87 | `Cn1cc(CN2CCN(CC3(c4ccccc4)CC3)CC2)cn1` | -1.187% |
| 88 | `CC(C)Oc1cc(N2CCC3(CC2)[C@H](O)C[C@@H]3O)nc(N)n1` | -2.493% |
| 89 | `CCCN(Cc1ccccn1)Cc1ccccc1OC` | 0.4656% |
| 90 | `COc1ccc(C2CCCCCN2S(=O)(=O)N(C)C)cc1` (stereo not given) | 3.223% |
| 91 | `Cn1nc(C(=O)N2CCSCC2)cc1NC(=O)c1ccccc1` | -1.152% |
| 92 | `Cn1ccnc(Sc2ccc(O)cc2)c1=O` | -1.519% |
| 93 | `CCc1nc(CN(C)C(=O)c2cc(NC(C)=O)ccc2Cl)no1` | 3.196% |
| 94 | `Cc1cc(CN(C)C(=O)CC(C)C)no1` | -1.738% |

The last 11 entries again:

structure,Percent Effect
CN1CCC(N2CCCC(C(=O)N3Cc4ccccc4C3)C2)CC1 (stereo not given),6.461%
Cc1ccc(C(=O)NC2CCN(Cc3nc(C(C)C)no3)CC2)s1,-1.872%
Cc1c(C(=O)N[C@@H]2CC[C@@H](N3CCCC3)[C@@H]2O)[nH]c2ccc(F)cc12,5.231%
Cn1cc(CN2CCN(CC3(c4ccccc4)CC3)CC2)cn1,-1.187%
CC(C)Oc1cc(N2CCC3(CC2)[C@H](O)C[C@@H]3O)nc(N)n1,-2.493%
CCCN(Cc1ccccn1)Cc1ccccc1OC,0.4656%
COc1ccc(C2CCCCCN2S(=O)(=O)N(C)C)cc1 (stereo not given),3.223%
Cn1nc(C(=O)N2CCSCC2)cc1NC(=O)c1ccccc1,-1.152%
Cn1ccnc(Sc2ccc(O)cc2)c1=O,-1.519%
CCc1nc(CN(C)C(=O)c2cc(NC(C)=O)ccc2Cl)no1,3.196%
Cc1cc(CN(C)C(=O)CC(C)C)no1,-1.738%